Experimental data: patent publication US9345241B2, “Composition having biocide activity for aqueous preparations” (Omya International AG, priority 2008, dated 2016)
For at least one compound, name, drawing or mass did not settle the structure.

Assays:
Assay type in all cases: cell-based
Pseudomonas putida [1] = assay: Biocidal activity of EDDM biocide in calcium carbonate slurries, plate count; conditions: lithium alone at the listed amount, no biocide
Method: (§1) All quoted bacterial counts (values are in cfu/ml) in the Tables herebelow are determined after 5 days following plate-out and in accordance with counting method described in “Bestimmung von aeroben mesophilen Keimen”, Schweizerisches Lebensmittelbuch, chapter 56, section 7.01, edition of 1985, revised version of 1988.
(§2) (Ethylenedioxy)dimethanol (EDDM), an aldehyde-releasing biocide, was introduced into 50 g samples of each of calcium carbonate slurry 1 and calcium carbonate slurry 2 in an amount corresponding to 1500 ppm of aldehyde-releasing EDDM biocide based on the weight of the weight of water in the slurry. In parallel, control samples of calcium carbonate slurry 1 and calcium carbonate slurry 2 were prepared in absence of EDDM.
(§3) Half of the samples of calcium carbonate slurry 1 and calcium carbonate slurry 2 were then inoculated with 1 mL of Methylobacterium extorquens, while the remaining samples where inoculated with 1 mL of Pseudomonas putida. Each of the samples was incubated at 30° C. for 72 hours. Thereafter, a 1:10 dilution in phosphate buffered saline (PBS) was plated on plate count agar (PCA). These plates were incubated at 30° C. and analysed after 5 days.

[2] = tested on: Methylobacterium extorquens; assay: as above; conditions: lithium alone at the listed amount, no biocide
Method: as §1, §2, §3

Pseudomonas mendocina [3] = assay: Biocidal activity of glutaraldehyde biocide mixture in calcium carbonate slurries, three inoculations; conditions: lithium alone 1500 or 1590 ppm, no biocide
[4] = tested on: Methylobacterium extorquens; assay: Biocidal activity of EDDM biocide mixture in calcium carbonate slurries, two inoculations; conditions: lithium alone 1500 ppm, no biocide
Pseudomonas mendocina [5] = assay: Biocidal activity of glutaraldehyde biocide mixture in calcium carbonate slurries, two inoculations; conditions: lithium alone 1500 ppm, no biocide
Pseudomonas putida [6] = assay: Biocidal activity of EDDM biocide mixture in calcium carbonate slurries, three inoculations; conditions: lithium alone 1500 or 1590 ppm, no biocide

Measured: biocidal action of lithium provided alone

[Li] [lithium]
fails to act as a biocide: Pseudomonas putida [1] | [2] | Pseudomonas mendocina [3] | [4] | Pseudomonas mendocina [5] | Pseudomonas putida [6]
